Experimental data published in patent US20260071003A1.
These are yes or no findings as the source states them, for the method shown. Some binding calls cover weakened binding; strength is not graded here.

T1: native human Apolipoprotein L1 (ApoL1), in purified TLF / HDL float / normal human serum / endogenous in culture (human) (UniProt O14791)
T1 sequence: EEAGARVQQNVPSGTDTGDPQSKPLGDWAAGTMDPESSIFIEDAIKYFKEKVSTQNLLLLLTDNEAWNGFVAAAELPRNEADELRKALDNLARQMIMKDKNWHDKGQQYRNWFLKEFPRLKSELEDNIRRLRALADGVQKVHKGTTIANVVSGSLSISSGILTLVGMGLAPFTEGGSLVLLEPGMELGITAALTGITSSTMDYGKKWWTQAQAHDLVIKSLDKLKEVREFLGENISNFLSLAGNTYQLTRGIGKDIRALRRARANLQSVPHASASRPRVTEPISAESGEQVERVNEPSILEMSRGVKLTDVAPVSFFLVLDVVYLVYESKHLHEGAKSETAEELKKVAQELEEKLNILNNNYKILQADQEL

T2: Haptoglobin related protein (Hpr), as a component of purified human Trypanosome Lytic Factor (TLF) / human HDL float (human) (UniProt P00739)
T2 sequence: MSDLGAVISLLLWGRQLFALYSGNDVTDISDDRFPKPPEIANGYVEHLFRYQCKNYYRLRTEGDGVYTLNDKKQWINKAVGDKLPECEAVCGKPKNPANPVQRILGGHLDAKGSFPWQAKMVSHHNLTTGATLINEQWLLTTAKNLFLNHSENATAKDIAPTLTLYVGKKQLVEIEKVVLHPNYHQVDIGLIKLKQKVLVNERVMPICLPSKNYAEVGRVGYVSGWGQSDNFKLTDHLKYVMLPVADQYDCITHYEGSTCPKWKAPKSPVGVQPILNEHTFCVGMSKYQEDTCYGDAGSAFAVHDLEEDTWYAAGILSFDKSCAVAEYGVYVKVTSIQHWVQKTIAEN


Legend:
[1] = biological target: ApoL1 Protein, human recombinant (Sino Biological 13910-H08B) (human) (UniProt O14791); experiment: dot blot (native)
[2] = biological target: ApoL1 Protein, human recombinant (Sino Biological 13910-H08B) (human) (UniProt O14791); experiment: dot blot (native) of recombinant ApoL1
[3] = biological target: ApoL1 Protein, human recombinant (Sino Biological 13910-H08B) (human) (UniProt O14791); experiment: Western blot of recombinant ApoL1, non-reducing and reducing
[4] = biological target: T1, native human Apolipoprotein L1 (ApoL1), in purified TLF / HDL float / normal human serum / endogenous in culture (human); experiment: Western blot of column purified TLF (2 ug), non-reducing and reducing
[5] = biological target: T2, Haptoglobin related protein (Hpr), as a component of purified human Trypanosome Lytic Factor (TLF) / human HDL float (human); experiment: Western blot of column purified TLF (2 ug), non-reducing SDS-PAGE

binding [1]	binding [2]	binding [3]	binding [4]	binding [5]	Binder
binds	binds	binds	binds	–	recombinant anti-ApoL1 antibody, clone SFIII 13.11 (antibody, V domains shown) VH: EVQLVESGGGLVKPGGSLKLSCAASGFTFSTYAMSWVRQSPEKRLEWVAEISNGGLYTYYPDTVTGRFTISRDNVKNILYLEMSSLRSEDTAIYYCIRENRNWYFDLWGAGTTVTVSS VL: DVLMTQTPLSLPVSLGDQASISCRSSQSIVNSNGNTYLEWYLQKPGQSPKLLIYKVSNRFSGVPDRFSGSGSGTDFTLKISRVEAEDLGVYYCFQGSHVPLTFGAGTKLELK
–	–	–	–	binds	recombinant anti-Hpr antibody, clone SFII 134.3 (antibody, V domains shown) VH: QIQLVQSGPELKKPGETVKISCKASGYIFTNYGMNWVRQAPGKGLKWMGWINSYTGEATYTDDLKGRFAFSLESSASTAYLQINNLKNEDTATYFCAREGYGDYGYSFDYWGQGTTLTVSS VL: DIQMTQSPASLSASVGETVTITCRATKNIYTYLAWYQQKQGKSPQFLVYNAKTLAEGVPSRFSGSGSGTQFSLKINSLQPEDFGNYYCQHHYGTPRTFGGGTKLEIK
–	–	–	–	binds	ascites Prot-G purified anti-Hpr antibody, clone SFII 134.3 (mouse IgG2a) (antibody, V domains shown) VH: QIQLVQSGPELKKPGETVKISCKASGYIFTNYGMNWVRQAPGKGLKWMGWINSYTGEATYTDDLKGRFAFSLESSASTAYLQINNLKNEDTATYFCAREGYGDYGYSFDYWGQGTTLTVSS VL: DIQMTQSPASLSASVGETVTITCRATKNIYTYLAWYQQKQGKSPQFLVYNAKTLAEGVPSRFSGSGSGTQFSLKINSLQPEDFGNYYCQHHYGTPRTFGGGTKLEIKR
